These are yes or no findings as the source states them, for the method shown. In cells and extracts the contact can be indirect. Some entries that bind do so weakly or less than the wild type. Each block holds one substance with its values, some of them ahead of it.
Key:
[1] = biological target: HA-tagged WNT3A (WNT3A-HA) (human) (UniProt P56704); assay: co-immunoprecipitation in HEK293T cells
[2] = biological target: HA-tagged WNT3A (WNT3A-HA) (human) (UniProt P56704); assay: summary sentence of the in vitro interaction assays (co-IP, GST pulldown)
[3] = biological target: HA-tagged WNT3A (WNT3A-HA) (human) (UniProt P56704); assay: co-immunoprecipitation
[4] = biological target: HA-tagged APCDD1 (APCDD1-HA) (human) (UniProt Q8J025); assay: co-immunoprecipitation (homodimerization)
[5] = biological target: Flag-tagged APCDD1 (APCDD1-Flag) (human) (UniProt Q8J025); assay: co-immunoprecipitation (homodimerization)

Sequences of proteins named here, by UniProt entry; tags and fusion partners are left off. A change or cut given only in a name is not applied to a line headed by its entry. Residues count along the entry.
UniProt P56704, residues 19-352: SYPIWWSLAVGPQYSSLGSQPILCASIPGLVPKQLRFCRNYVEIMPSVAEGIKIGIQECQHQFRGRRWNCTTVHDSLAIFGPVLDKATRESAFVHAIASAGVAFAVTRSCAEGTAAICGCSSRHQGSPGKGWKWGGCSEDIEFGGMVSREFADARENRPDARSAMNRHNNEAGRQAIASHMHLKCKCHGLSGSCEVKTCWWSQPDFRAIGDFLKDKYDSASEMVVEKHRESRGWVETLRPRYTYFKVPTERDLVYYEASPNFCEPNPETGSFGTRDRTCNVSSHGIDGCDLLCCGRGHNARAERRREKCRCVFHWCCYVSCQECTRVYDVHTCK
UniProt Q8J025: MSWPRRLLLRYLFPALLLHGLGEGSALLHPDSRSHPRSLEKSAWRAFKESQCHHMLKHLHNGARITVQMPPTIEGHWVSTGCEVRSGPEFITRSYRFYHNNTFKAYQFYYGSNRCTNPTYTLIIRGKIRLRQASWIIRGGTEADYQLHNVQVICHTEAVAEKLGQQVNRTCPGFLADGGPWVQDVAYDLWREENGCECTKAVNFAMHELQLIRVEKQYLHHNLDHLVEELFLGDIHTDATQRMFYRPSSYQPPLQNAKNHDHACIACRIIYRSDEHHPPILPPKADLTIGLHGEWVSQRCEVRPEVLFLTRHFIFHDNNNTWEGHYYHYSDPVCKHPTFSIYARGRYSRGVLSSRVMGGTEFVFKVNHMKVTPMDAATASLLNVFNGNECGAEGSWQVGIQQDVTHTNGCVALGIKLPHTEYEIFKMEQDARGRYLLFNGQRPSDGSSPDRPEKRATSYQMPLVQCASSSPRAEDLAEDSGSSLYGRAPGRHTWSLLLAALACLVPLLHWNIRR

binding [1]: binds
binding [2]: binds
binding [3]: binds
Substance: Flag-tagged extracellular domain of APCDD1 protein (APCDD1-ΔTM-Flag) (from UniProt Q8J025 27-486)

binding [4]: binds
Substance: Flag-tagged APCDD1 (APCDD1-Flag) (from UniProt Q8J025 27-514)

binding [5]: binds
Substance: HA-tagged APCDD1 (APCDD1-HA) (from UniProt Q8J025 27-514)
